Reference: PubChem BioAssay AID504804 (Drosophila RNAi Screening Center, 2011)

Aim: 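Fly genes whose loss lessens doxorubicin-driven cell death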 (primary screen)
System: Drosophila Kc cells
Reagents: long dsRNA against Drosophila genes, 0.5 µg dsRNA per well
Time to read-out: 96 h (48 h knock-down, then 48 h drug)
Conditions: doxorubicin 5 µg/ml for 48 h, added 48 h after dsRNA
Measurement: 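Luminescent ATP counts per replicate, not normalised, reflecting viable cells after 48 h dsRNA knock-down followed by 48 h of 5 µg/ml doxorubicin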
Reading the numbers: raw ATP luminescence: higher = more viable cells, protection from doxorubicin
Active means: 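Active when both duplicate wells lie at least 2 SD above the plate mean and protection is confirmed by rescreening and independent dsRNAs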
The screen tested about 19,000 reagents; shown is a random part of those with a known target gene and a result. Over the whole deposit, 47 (0.25%) are marked active. 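Signals are raw, not normalised; exact z-scores behind calls not deposited; actives needed confirmation, so some wells reaching 2 SD are inactive.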 Unmarked entries are inactive. The numbers tell different reagents against one gene apart. No sequences are given here.

gene,reagent no.,SD above plate mean,"raw ATP luminescence, replicate 1","raw ATP luminescence, replicate 2"
CG5532,1,,1.65e5,1.70e5
JYalpha,1,,54100,59040
rad50,1,,62753,58927
trpl (transient receptor potential-like),1,,46983,74123
trpl (transient receptor potential-like),2,,45663,75710
CG13001,1,,3.83e5,2.76e5
OS9 (Olfactory-specific 9),1,,60343,63513
CG7557,1,,35430,27097
prod (proliferation disrupter),1,,55003,62990
Brd (Bearded),1,2 to 3 SD above plate mean,94253,1.02e5
RtGEF (Rho-type guanine nucleotide exchange factor),1,,67437,76663
Dcp-1 (Death caspase-1),1,,80707,78787
CG5151,1,,33523,30417
CR16735 (pseudo),1,,55363,49817
VhaM9.7-c (Vacuolar H[+] ATPase M9.7 subunit c),1,,41030,37783
CG32830 (retired record),1,,73300,79230
Rad17,1,,70100,84030
Mef2 (Myocyte enhancer factor 2),1,,55203,47527
CG31431,1,,59390,65890
CG34045,1,,1.06e5,59807
Rpn10 (Regulatory particle non-ATPase 10),1,,56083,62963
Wnt5 (Wnt oncogene analog 5),1,,2.55e5,2.71e5
CG13123,1,,40063,63087
dpr8 (defective proboscis extension response 8),1,,3.61e5,3.35e5
dpr8 (defective proboscis extension response 8),2,,3.35e5,3.31e5
dpr8 (defective proboscis extension response 8),3,,3.77e5,3.54e5
dpr8 (defective proboscis extension response 8),4,,3.85e5,3.63e5
CG9903,1,,2.54e5,2.36e5
asf1 (anti-silencing factor 1),1,,22337,23773
CG8067,1,,53313,46683
unc-4,1,,3.33e5,3.15e5
CG6420,1,,36710,40950
CG4768,1,,1.77e5,1.87e5
CG12692,1,,36280,51920
l(1)sc (lethal of scute),1,,42370,50000
RpL10 (Ribosomal protein L10),1,,44563,38397
CG17780,1,,73090,75250
CstF64 (Cleavage stimulation factor 64 kD subunit),1,,65920,54610
Ask1 (Apoptotic signal-regulating kinase 1),1,,49010,75700
mle (maleless),1,,50670,44570
Spps (Sp1-like factor for pairing sensitive-silencing),1,,36253,39133
Sgs1 (Salivary gland secretion 1),1,,21477,27800
Sgs1 (Salivary gland secretion 1),2,,2.61e5,3.12e5
CG17124,1,,51003,87517
CG3942,1,,61627,51603
CG31100,1,,66923,59503
CG31100,2,,56297,70280
Tmx3 (Thioredoxin-related transmembrane protein 3),1,,34233,34300
Sol1,1,,60040,51833
Sol1,2,,53733,40813
Sol1,3,,66203,58160
CG3505,1,,75870,42143
CG8192,1,,64480,50327
CtsK2 (Cathepsin K2),1,,82303,75283
Arl8 (ADP ribosylation factor-like 8),1,,74843,77047
Klp31E (Kinesin-like protein at 31E),1,,79480,56143
CG4995,1,,77383,62203
Usp8 (Ubiquitin specific protease 8),1,,47050,46107
CG34302,1,,56890,47387
CG18301,1,,42717,81550
Idh3b (Isocitrate dehydrogenase 3b),1,at least 3 SD above plate mean,73500,94860
ihog (interference hedgehog),1,,1.04e5,61597
CG15544,1,,67190,36430
CG13097,1,,1.08e5,89657
sNPF-R (short neuropeptide F receptor),1,,69840,57793
CG33143,1,,70193,66160
CG33143,2,,37787,52570
CG13616,1,,56520,59070
Ugt37E1 (UDP-glycosyltransferase family 37 member E1),1,,64743,68317
CG34115,1,,80037,80367
grn (grain),1,,58627,19070
grn (grain),2,,70820,72607
htt (huntingtin),1,,61610,44630
CG10359,1,,32377,36543
N (Notch),1,,47580,49240
MstProx,1,,70163,47823
MstProx,2,,68387,48113
GluRIA (Glutamate receptor IA),1,,66517,65893
comm2,1,,44373,42703
comm2,2,,45350,41167
CG7094,1,,86073,83373
CG7214,1,,1.03e5,64150
CG11756,1,,2.94e5,3.04e5
ea (easter),1,,89850,94880
